PubChem BioAssay AID1259303, Sanger Institute, 2017
Test: 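Which silenced kinases add to BYL719, cetuximab or trametinib effects in colorectal cancer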 (follow-up of hits). Cells: human COLO320HSR colorectal cancer cells. Reagent: single siRNA against human genes. Challenge: anchor drug BYL719 (1 µM), cetuximab (5 µg/ml) or trametinib (10 nM), or DMSO vehicle alone. Detection: 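Replicate-averaged viability relative to non-targeting pool 2 siRNA under DMSO; synergy scores against each drug alone for BYL719 1 µM, cetuximab 5 µg/ml or trametinib 10 nM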. Reading the numbers: synergy score with BYL719: higher = stronger combined killing with BYL719; synergy score with cetuximab: higher = stronger combined killing with cetuximab; synergy score with trametinib: higher = stronger combined killing with trametinib; viability, siRNA alone (DMSO): higher = more viable cells. Call rule: 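a knock-down counts as active when any of the three drug synergy scores exceeds 0.10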. Meaning of the calls: active = synergy with at least one drug; inactive = no synergy found.
Here is an unselected part of 160 deposited reagents. 11 of all reagents (6.9%) count as active. 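Viability capped at 1; how the synergy score is calculated is not stated; four separate siRNAs target each gene.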 Entries without a mark were called inactive. Reagents against one gene are numbered here. The record does not give: the amount of reagent, the time to read-out.

no.	Gene	reagent no.	synergy score with BYL719	synergy score with cetuximab	synergy score with trametinib	viability, siRNA alone (DMSO) (fraction of control)
1	KCNH8	1	-0.102	-0.0395	0.0119	0.96
2	KCNH8	2	-0.0358	-0.00365	0.0379	0.604
3	KCNH8	3	-0.179	0	0	1
4	KCNH8	4	-0.019 (active)	0.122	-0.0479	0.952
5	IRAK1	1	-0.0399 (active)	-0.0941	0.245	0.892
6	IRAK1	2	-0.113	-0.0934	-0.121	0.879
7	IRAK1	3	0.0545 (active)	-0.025	0.18	0.975
8	IRAK1	4	-0.0496	-0.055	-0.119	0.881
9	SYNCRIP	1	-0.0428	0.0458	0	1
10	SYNCRIP	2	-0.0848	-0.0224	-0.031	0.969
11	SYNCRIP	3	-0.167	-0.0363	-0.189	0.608
12	SYNCRIP	4	-0.102	-0.104	-0.102	0.846
13	MAP3K8	1	-0.178	0	0	1
14	MAP3K8	2	-0.237	-0.0457	-0.22	0.706
15	MAP3K8	3	-0.133	-0.0128	-0.102	0.898
16	MAP3K8	4	-0.0698	0.00696	0	1
17	HSPB8	1	-0.0632	-0.0184	-0.0402	0.96
18	HSPB8	2	-0.37	-0.0446	-0.0962	0.904
19	HSPB8	3	-0.155	-0.0319	-0.0319	0.968
20	HSPB8	4	0.00867 (active)	0.134	0.0564	0.899
21	PAK1	1	-0.0755	-0.152	-0.152	0.848
22	PAK1	2	-0.0634	0.0138	-0.0596	0.863
23	PAK1	3	-0.0303	0	0	1
24	PAK1	4	-0.0708	-0.0356	-0.0712	0.929
25	ACVR1	1	-0.0438	0.0038	0	1
26	ACVR1	2	-0.0835	0	0	1
27	ACVR1	3	-0.179	0	0	1
28	ACVR1	4	-0.245	-0.15	-0.228	0.656
29	CHD4	1	-0.139	-0.0564	-0.178	0.669
30	CHD4	2	-0.327	0.0311	-0.299	0.638
31	CHD4	3	-0.0534	0.093	-0.127	0.873
32	CHD4	4	-0.216	-0.0748	-0.228	0.772
33	NR2F2	1	-0.0908	-0.0475	-0.0599	0.915
34	NR2F2	2	-0.147	-0.132	-0.229	0.771
35	NR2F2	3	-0.357	-0.245	-0.259	0.741
36	NR2F2	4	-0.163	-0.133	-0.149	0.675
37	PFKFB3	1	-0.129	-0.00304	-0.00304	0.997
38	PFKFB3	2	-0.178	-0.0369	-0.125	0.747
39	PFKFB3	3	-0.188	-0.0171	-0.0171	0.983
40	PFKFB3	4	-0.0658	0.0284	-0.0471	0.953
41	MARK3	1	-0.137	-0.14	-0.14	0.86
42	MARK3	2	-0.0538	0	0	1
43	MARK3	3	-0.376	-0.109	-0.172	0.828
44	MARK3	4	-0.198	-0.138	-0.218	0.714
45	SF3B1	1	-0.206	-0.13	-0.173	0.308
46	SF3B1	2	-0.00338	0.017	-0.0113	0.37
47	SF3B1	3	0.00745	-0.11	0.0564	0.596
48	SF3B1	4	-0.0728	-0.0572	-0.061	0.3
49	AK2	1	-0.23	-0.143	-0.233	0.767
50	AK2	2	-0.301	0	0	1
51	AK2	3	0.00972	-0.118	-0.118	0.882
52	AK2	4	-0.303	0	0	1
53	IKBKB	1	-0.0644	0.099	-0.0288	0.971
54	IKBKB	2	-0.0789	-0.0371	-0.147	0.853
55	IKBKB	3	-0.0983	0.0605	-0.028	0.972
56	IKBKB	4	-0.0808	0.0506	-0.0253	0.975
57	MAPKAPK2	1	-0.12	-0.103	-0.103	0.897
58	MAPKAPK2	2	-0.0297	-0.174	-0.187	0.791
59	MAPKAPK2	3	-0.104	-0.0385	-0.151	0.849
60	MAPKAPK2	4	-0.00163	-0.159	-0.136	0.841

In a second layout: entries from further up.
Gene,reagent no.,synergy score with BYL719,synergy score with cetuximab,synergy score with trametinib,"viability, siRNA alone (DMSO) (fraction of control)"
SYNCRIP,2,-0.0848,-0.0224,-0.031,0.969
SYNCRIP,3,-0.167,-0.0363,-0.189,0.608
SYNCRIP,4,-0.102,-0.104,-0.102,0.846
MAP3K8,1,-0.178,0,0,1
MAP3K8,2,-0.237,-0.0457,-0.22,0.706
